Results taken from patent US20090011988A1 (Genentech, published 2009).
Results are given in words; binding and its absence hold for the method and conditions named. Some entries that bind do so weakly or less than the wild type.

Sequences of proteins named here, by UniProt entry; tags and fusion partners are left off. A change or cut given only in a name is not applied to a line headed by its entry. Residues count along the entry.
UniProt P17936, residues 28-291: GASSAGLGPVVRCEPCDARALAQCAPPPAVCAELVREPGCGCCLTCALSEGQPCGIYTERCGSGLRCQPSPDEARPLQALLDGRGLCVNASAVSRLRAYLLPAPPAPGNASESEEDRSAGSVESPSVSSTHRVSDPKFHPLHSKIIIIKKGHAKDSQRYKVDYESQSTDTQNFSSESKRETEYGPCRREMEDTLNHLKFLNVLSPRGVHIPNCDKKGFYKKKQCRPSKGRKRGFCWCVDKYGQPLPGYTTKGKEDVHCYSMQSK
UniProt P05019: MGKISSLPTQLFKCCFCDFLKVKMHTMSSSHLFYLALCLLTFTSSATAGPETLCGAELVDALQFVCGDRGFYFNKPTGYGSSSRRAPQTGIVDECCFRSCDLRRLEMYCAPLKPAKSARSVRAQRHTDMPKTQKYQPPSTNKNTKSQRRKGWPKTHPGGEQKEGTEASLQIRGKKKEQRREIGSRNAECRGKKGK

Tests used:
human IGFBP-1 [1] = target: T1, human IGFBP-1 (human, UniProt P08833 26-259); assay: phage ELISA: titration of phage displaying the IGF-1 variant on immobilized IGFBP-1; OD450
T1 sequence (looked up): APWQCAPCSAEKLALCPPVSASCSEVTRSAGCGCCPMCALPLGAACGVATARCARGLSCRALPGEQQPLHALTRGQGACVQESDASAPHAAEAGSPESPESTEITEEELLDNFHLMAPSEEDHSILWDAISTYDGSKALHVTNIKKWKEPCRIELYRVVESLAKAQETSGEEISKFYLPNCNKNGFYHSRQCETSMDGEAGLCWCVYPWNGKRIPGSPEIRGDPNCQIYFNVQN

[2] = target: T2, recombinant human IGFBP-3 (human, UniProt P17936 28-291); assay: phage binding to immobilized IGFBP
human IGFBP-1 [3] = target: T1, human IGFBP-1; assay: phage binding to immobilized IGFBP
[4] = target: T2, recombinant human IGFBP-3; assay: phage ELISA: titration of phage displaying the IGF-1 variant on immobilized IGFBP-3; OD450
[5] = target: T2, recombinant human IGFBP-3; assay: phage display
human IGFBP-1 [6] = target: T1, human IGFBP-1; assay: phage display

Measured: binding

D12K IGF-1 displayed on phage (from UniProt P05019 49-118) (ligand)
binds: human IGFBP-1 [1] | [2] | human IGFBP-1 [3] | [4]

D12R IGF-1 displayed on phage (from UniProt P05019 49-118) (ligand)
binds: human IGFBP-1 [1] | [2] | human IGFBP-1 [3] | [4]

Y31C IGF-1 displayed on phage (from UniProt P05019 49-118) (ligand)
binds: [5] | human IGFBP-1 [6]
